From article PMC3629208
No constants are given. Whether binding was seen depends on the method and setting. Binding seen in cells or lysates may run through a third protein. Some binding calls cover weakened binding; strength is not graded here.

Amino acid sequences for entries named in this document (tags omitted).
UniProt P31750: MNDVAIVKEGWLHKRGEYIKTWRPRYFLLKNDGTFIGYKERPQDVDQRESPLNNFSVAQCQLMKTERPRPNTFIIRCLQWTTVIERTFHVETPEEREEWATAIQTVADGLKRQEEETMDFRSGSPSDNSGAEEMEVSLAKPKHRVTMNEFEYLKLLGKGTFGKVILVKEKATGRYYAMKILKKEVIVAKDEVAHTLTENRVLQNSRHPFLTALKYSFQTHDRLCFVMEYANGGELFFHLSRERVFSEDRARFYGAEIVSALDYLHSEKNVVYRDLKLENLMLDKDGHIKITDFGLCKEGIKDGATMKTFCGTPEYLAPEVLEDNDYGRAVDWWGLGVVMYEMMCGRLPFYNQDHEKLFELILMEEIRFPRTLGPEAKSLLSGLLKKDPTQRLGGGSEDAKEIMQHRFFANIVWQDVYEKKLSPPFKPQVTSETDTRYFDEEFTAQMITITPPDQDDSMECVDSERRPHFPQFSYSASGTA
UniProt P63085: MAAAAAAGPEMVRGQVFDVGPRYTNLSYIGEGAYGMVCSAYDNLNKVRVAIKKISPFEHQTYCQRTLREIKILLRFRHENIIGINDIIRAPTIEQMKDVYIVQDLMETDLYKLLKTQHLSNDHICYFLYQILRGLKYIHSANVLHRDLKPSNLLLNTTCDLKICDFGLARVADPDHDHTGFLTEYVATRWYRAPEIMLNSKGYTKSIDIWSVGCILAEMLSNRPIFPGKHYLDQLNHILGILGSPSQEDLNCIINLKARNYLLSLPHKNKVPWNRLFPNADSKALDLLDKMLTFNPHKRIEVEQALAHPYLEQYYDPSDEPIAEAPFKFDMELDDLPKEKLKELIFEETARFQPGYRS
UniProt O35685: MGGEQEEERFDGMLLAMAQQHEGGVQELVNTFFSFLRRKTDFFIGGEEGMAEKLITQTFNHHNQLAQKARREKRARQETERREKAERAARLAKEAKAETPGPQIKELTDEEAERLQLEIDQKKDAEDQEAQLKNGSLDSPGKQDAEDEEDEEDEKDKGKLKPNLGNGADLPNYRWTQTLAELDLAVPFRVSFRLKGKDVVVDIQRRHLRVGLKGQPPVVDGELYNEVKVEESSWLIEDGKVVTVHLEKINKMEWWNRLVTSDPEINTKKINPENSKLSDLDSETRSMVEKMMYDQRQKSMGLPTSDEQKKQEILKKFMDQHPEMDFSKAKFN

How the values were obtained:
[1] = target: Akt (protein kinase B), Akt1 (mouse (endogenous in Neuro 2A)) (UniProt P31750); assay: co-IP; anti-Akt antibody fixed on the beads by DSS, without DSP-crosslinking, Neuro 2A lysate (control or IGF-stimulated), western blot
[2] = target: Akt (protein kinase B), Akt1 (mouse (endogenous in Neuro 2A)) (UniProt P31750); assay: co-IP; two-step crosslinking co-IP (DSS-fixed anti-Akt antibody, DSP-crosslinking of the bound complexes) from Neuro 2A lysate, western blot; cells with or without IGF-1 (10 ng/mL, 10 min); band intensity normalized to Akt level

| binding [1] | binding [2] | Substance |
| --- | --- | --- |
| binds | binds | extracellular regulated kinase-1 and -2 (ERK1/2) (from UniProt P63085 1-358) |
|  | binds | nuclear distribution gene C (Nudc, also named nuclear migration gene C) (from UniProt O35685 1-332) |
